No constants are given. Whether binding was seen depends on the method and setting. Binding seen in cells or lysates may run through a third protein. A yes stands for co-enrichment or nearness to the bait. Other partners may have been found. Where a sequence is shown, tags or fusion partners need not be part of it.
T1: FLAG tagged SETD7 (protein lysine methyltransferase SETD7) (human) (UniProt Q8WTS6)
T1 sequence: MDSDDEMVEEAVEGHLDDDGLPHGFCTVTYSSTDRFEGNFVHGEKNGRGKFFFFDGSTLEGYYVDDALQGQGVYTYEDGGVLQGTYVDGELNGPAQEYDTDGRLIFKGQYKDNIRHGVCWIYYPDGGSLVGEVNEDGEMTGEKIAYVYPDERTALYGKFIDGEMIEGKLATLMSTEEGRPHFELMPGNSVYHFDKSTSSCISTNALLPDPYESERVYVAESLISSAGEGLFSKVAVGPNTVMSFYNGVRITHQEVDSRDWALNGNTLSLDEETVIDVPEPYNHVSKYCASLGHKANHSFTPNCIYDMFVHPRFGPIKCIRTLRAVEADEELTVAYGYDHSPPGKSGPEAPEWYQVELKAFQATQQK

B1: FBL (protein, UniProt P22087 1-321)
chain: MKPGFSPRGGGFGGRGGFGDRGGRGGRGGFGGGRGRGGGFRGRGRGGGGGGGGGGGGGRGGGGFHSGGNRGRGRGGKRGNQSGKNVMVEPHRHEGVFICRGKEDALVTKNLVPGESVYGEKRVSISEGDDKIEYRAWNPFRSKLAAAILGGVDQIHIKPGAKVLYLGAASGTTVSHVSDIVGPDGLVYAVEFSHRSGRDLINLAKKRTNIIPVIEDARHPHKYRMLIAMVDVIFADVAQPDQTRIVALNAHTFLRNGGHFVISIKANCIDSTASAEAVFASEVKKMQQENMKPQEQLTLEPYERDHAVVVGVYRPPPKVKN
B2: LUC7L2 (protein, UniProt Q9Y383 1-392)
chain: MSAQAQMRAMLDQLMGTSRDGDTTRQRIKFSDDRVCKSHLLNCCPHDVLSGTRMDLGECLKVHDLALRADYEIASKEQDFFFELDAMDHLQSFIADCDRRTEVAKKRLAETQEEISAEVAAKAERVHELNEEIGKLLAKVEQLGAEGNVEESQKVMDEVEKARAKKREAEEVYRNSMPASSFQQQKLRVCEVCSAYLGLHDNDRRLADHFGGKLHLGFIEIREKLEELKRVVAEKQEKRNQERLKRREEREREEREKLRRSRSHSKNPKRSRSREHRRHRSRSMSRERKRRTRSKSREKRHRHRSRSSSRSRSRSHQRSRHSSRDRSRERSKRRSSKERFRDQDLASCDRDRSSRDRSPRDRDRKDKKRSYESANGRSEDRRSSEEREAGEI
B3: DEK (protein, UniProt P35659 1-375)
chain: MSASAPAAEGEGTPTQPASEKEPEMPGPREESEEEEDEDDEEEEEEEKEKSLIVEGKREKKKVERLTMQVSSLQREPFTIAQGKGQKLCEIERIHFFLSKKKTDELRNLHKLLYNRPGTVSSLKKNVGQFSGFPFEKGSVQYKKKEEMLKKFRNAMLKSICEVLDLERSGVNSELVKRILNFLMHPKPSGKPLPKSKKTCSKGSKKERNSSGMARKAKRTKCPEILSDESSSDEDEKKNKEESSDDEDKESEEEPPKKTAKREKPKQKATSKSKKSVKSANVKKADSSTTKKNQNSSKKESESEDSSDDEPLIKKLKKPPTDEELKETIKKLLASANLEEVTMKQICKKVYENYPTYDLTERKDFIKTTVKELIS
B4: SFRS3 (protein, UniProt P84103 1-164)
chain: MHRDSCPLDCKVYVGNLGNNGNKTELERAFGYYGPLRSVWVARNPPGFAFVEFEDPRDAADAVRELDGRTLCGCRVRVELSNGEKRSRNRGPPPSWGRRPRDDYRRRSPPPRRRSPRRRSFSRSRSRSLSRDRRRERSLSRERNHKPSRSFSRSRSRSRSNERK
B5: TRA2B (protein, UniProt P62995 1-288)
chain: MSDSGEQNYGERESRSASRSGSAHGSGKSARHTPARSRSKEDSRRSRSKSRSRSESRSRSRRSSRRHYTRSRSRSRSHRRSRSRSYSRDYRRRHSHSHSPMSTRRRHVGNRANPDPNCCLGVFGLSLYTTERDLREVFSKYGPIADVSIVYDQQSRRSRGFAFVYFENVDDAKEAKERANGMELDGRRIRVDFSITKRPHTPTPGIYMGRPTYGSSRRRDYYDRGYDRGYDDRDYYSRSYRGGGGGGGGWRAAQDRDQIYRRRSPSPYYSRGGYRSRSRSRSYSPRRY

Biological target: T1, FLAG tagged SETD7 (protein lysine methyltransferase SETD7) (human)
Experiment: affinity purification with mass spectrometry; nuclear extract of HeLa cells transduced with FLAG:SETD7 (control: empty vector), adjusted to 300 mM salt and 0.1% NP40, on ANTI-FLAG M2 affinity gel; washed with BC300 with 0.1% NP40; eluted with 0.3 mg/ml FLAG peptide; in-gel or in-solution digestion

binding, binds:
B1
B2
B3
B4
B5
